Assay results as given in PubChem BioAssay AID1347075 (National Center for Advancing Translational Sciences (NCATS), 2019).
Hit rate of the full screen: of about 400,000 compounds, about 5,500 (1.4%) were called active. The shares of active, inactive and inconclusive entries below differ from those in the screen. Calls come from the whole dose curve; as a rule, active = well fitted cell-killing curve with a large enough effect; inconclusive = small, poorly fitted or top-dose-only effect, or effect the other way; inactive = flat fitted curve, though single readings scatter. Where the call is inconclusive, the potency comes from a doubtful curve fit.

Assay: qHTS assay for MDR1-selective chemotherapeutics: Primary screen using the parental adenocarcinoma cell KB-3-1; note: nearly all actives have a fitted effect of over 60% in size
Settings: KB-3-1 viability, CellTiter-Glo ATP luminescence, 72 h; activity change, negative = cytotoxic: at 46.1 µM (top of the series)
Method in brief: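 KB-3-1 cells, DMEM (no phenol red) + 10% FBS; compound by pin transfer, 72 h, 37 °C. Readout: CellTiter-Glo luminescence after 10 min. Data normalized, curve-fitted.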
% is set by controls: 0 for no effect and ±100 for the full control effect; potency is the fitted concentration of half-maximal effect.

| Structure (SMILES) | activity change, negative = cytotoxic | Potency |
| --- | --- | --- |
| CC(=O)c1ccc(OCCCC(=O)OCC(=O)N2CCN(S(=O)(=O)c3ccc(C)cc3C)CC2)cc1 | inactive: 28.9% |  |
| COc1ccc(C)cc1NC(=O)CC(=O)Nc1ccc2nc3n(c(=O)c2c1)CCCCC3 |  | inconclusive: 23.1 µM [cytotoxic, single point] |
| O=S(=O)(Nc1ccc(-n2cccc2)cc1)c1ccc(Cl)c(Cl)c1 | inactive: 0.905% |  |
| ClCC1NCC(c2ccccc2Cl)c2c1[nH]c1ccccc21 (stereo not given) |  | inconclusive: 23.1 µM [cytotoxic, single point] |
| O=C(c1ccc(S(=O)(=O)Cc2cc(F)ccc2F)c([N+](=O)[O-])c1)N1CCCCC1 | inactive: -9.37% |  |
| CC(=O)Cn1cnc2c(cnn2-c2ccc(F)cc2)c1=O | inactive: -1.31% |  |
| O=C(Nc1ccc(N2CCCCC2)c(Cl)c1)c1ccc2c(c1)OCCO2 |  | active: 16.4 µM |
| CCCCCCCCN1C(=O)[C@H](CC(=O)N2CCN(C(=O)c3ccco3)CC2)C[C@@]2(C(=O)OC)CC(C)(C)CC=C12 | inactive: -3.76% |  |
| O=C(Nc1ccc2oc(=O)c(C(=O)O)cc2c1)Oc1ccccc1 | inconclusive: -6.01% |  |
| N=C(N)SCc1cccc2c(=O)cc(-c3ccccc3)oc12 |  | inconclusive: 18.4 µM [cytotoxic, partial curve] |
| CCOC(=O)c1c(NC(=O)Cn2nnc3ccccc32)sc2c1CCC(C)C2 (stereo not given) |  | inconclusive: 23.1 µM [cytotoxic, single point] |
| CS(=O)(=O)c1ccccc1-c1nc(-c2cc(C(F)(F)F)cc(C(F)(F)F)c2)no1 | inactive: 7.45% |  |
| CCC1CCCCN1CCCNC(=O)c1ccc2nc(N3CCC(C)CC3)sc2c1 (stereo not given) |  | inconclusive: 20.6 µM [cytotoxic, single point] |
| COC(=O)[C@]12CCCCC=C1N(CCC1=CCCCC1)C(=O)[C@H](CC(=O)NCCC(C)C)C2 |  | inconclusive: 29.1 µM [cytotoxic, single point] |
| CCOC(=O)c1nnn(-c2nonc2N)c1COc1ccccc1 |  | inconclusive: 16.4 µM [rising, partial curve, poor fit] |
| Cc1ccc(-c2nc3ccccc3[nH]2)cc1NC(=O)COc1cccc(C)c1C |  | inconclusive: 23.1 µM [cytotoxic, single point] |
| Cc1ccccc1OCCCc1c(C)n[nH]c1C |  | inconclusive: 23.1 µM [cytotoxic, single point] |
| CCOC(=O)c1sc(NC(=O)c2cccc(S(=O)(=O)N3CCN(C)CC3)c2)cc1C | inactive: -30.1% |  |
| COc1ccc2c(CC(=O)NNC(=O)c3ccc(C)cc3)coc2c1 |  | inconclusive: 20.6 µM [rising, single point] |
| Cc1nn(-c2ccccc2)c(C)c1NC(=O)COc1ccc([N+](=O)[O-])cc1 | inactive: 3.12% |  |
| O=C(CSc1nc2ccccc2n1-c1ccccc1)Nc1ncc(Cl)cc1Cl |  | active: 5.17 µM |
| Cc1ccc(-n2c(Cl)c(Cl)nc(Cl)c2=O)cc1 |  | inconclusive: 7.31 µM [cytotoxic, partial curve] |
| CC(=O)Nc1ccc(S(=O)(=O)NNc2ccc([N+](=O)[O-])cc2)cc1 |  | inconclusive: 20.6 µM [cytotoxic, single point] |
| Cc1ccc(NC(=O)Cn2c(=O)c(CNc3ccccc3)cc3cc4c(cc32)OCCO4)cc1 |  | inconclusive: 2.59 µM [rising, partial curve, poor fit] |

Reprinted from the listing (20 entries):

| Structure (SMILES) | activity change, negative = cytotoxic | Potency |
| --- | --- | --- |
| O=S(=O)(Nc1ccc(-n2cccc2)cc1)c1ccc(Cl)c(Cl)c1 | inactive: 0.905% |  |
| ClCC1NCC(c2ccccc2Cl)c2c1[nH]c1ccccc21 (stereo not given) |  | inconclusive: 23.1 µM [cytotoxic, single point] |
| O=C(c1ccc(S(=O)(=O)Cc2cc(F)ccc2F)c([N+](=O)[O-])c1)N1CCCCC1 | inactive: -9.37% |  |
| CC(=O)Cn1cnc2c(cnn2-c2ccc(F)cc2)c1=O | inactive: -1.31% |  |
| O=C(Nc1ccc(N2CCCCC2)c(Cl)c1)c1ccc2c(c1)OCCO2 |  | active: 16.4 µM |
| CCCCCCCCN1C(=O)[C@H](CC(=O)N2CCN(C(=O)c3ccco3)CC2)C[C@@]2(C(=O)OC)CC(C)(C)CC=C12 | inactive: -3.76% |  |
| O=C(Nc1ccc2oc(=O)c(C(=O)O)cc2c1)Oc1ccccc1 | inconclusive: -6.01% |  |
| N=C(N)SCc1cccc2c(=O)cc(-c3ccccc3)oc12 |  | inconclusive: 18.4 µM [cytotoxic, partial curve] |
| CCOC(=O)c1c(NC(=O)Cn2nnc3ccccc32)sc2c1CCC(C)C2 (stereo not given) |  | inconclusive: 23.1 µM [cytotoxic, single point] |
| CS(=O)(=O)c1ccccc1-c1nc(-c2cc(C(F)(F)F)cc(C(F)(F)F)c2)no1 | inactive: 7.45% |  |
| CCC1CCCCN1CCCNC(=O)c1ccc2nc(N3CCC(C)CC3)sc2c1 (stereo not given) |  | inconclusive: 20.6 µM [cytotoxic, single point] |
| COC(=O)[C@]12CCCCC=C1N(CCC1=CCCCC1)C(=O)[C@H](CC(=O)NCCC(C)C)C2 |  | inconclusive: 29.1 µM [cytotoxic, single point] |
| CCOC(=O)c1nnn(-c2nonc2N)c1COc1ccccc1 |  | inconclusive: 16.4 µM [rising, partial curve, poor fit] |
| Cc1ccc(-c2nc3ccccc3[nH]2)cc1NC(=O)COc1cccc(C)c1C |  | inconclusive: 23.1 µM [cytotoxic, single point] |
| Cc1ccccc1OCCCc1c(C)n[nH]c1C |  | inconclusive: 23.1 µM [cytotoxic, single point] |
| CCOC(=O)c1sc(NC(=O)c2cccc(S(=O)(=O)N3CCN(C)CC3)c2)cc1C | inactive: -30.1% |  |
| COc1ccc2c(CC(=O)NNC(=O)c3ccc(C)cc3)coc2c1 |  | inconclusive: 20.6 µM [rising, single point] |
| Cc1nn(-c2ccccc2)c(C)c1NC(=O)COc1ccc([N+](=O)[O-])cc1 | inactive: 3.12% |  |
| O=C(CSc1nc2ccccc2n1-c1ccccc1)Nc1ncc(Cl)cc1Cl |  | active: 5.17 µM |
| Cc1ccc(-n2c(Cl)c(Cl)nc(Cl)c2=O)cc1 |  | inconclusive: 7.31 µM [cytotoxic, partial curve] |

Following part

| Structure (SMILES) | activity change, negative = cytotoxic | Potency |
| --- | --- | --- |
| COc1ccc(-c2nc3n(n2)C(c2ccccc2)C2=C(CCCC2=O)N3)cc1OC (stereo not given) | inactive: 20.5% |  |
| O=C(/C=C/c1ccccc1Cl)Nc1cccc([S+](=O)([O-])Nc2ccccc2F)c1 |  | inconclusive: 32.6 µM [cytotoxic, single point] |
| CCc1cc(C(=O)OC)c(NC(=O)CN2CCN(C(=O)c3ccco3)CC2)s1 | inactive: -20.8% |  |
| Cc1cc(C)c(CN2CCN(CCCn3ccc(NC(=O)OCc4ccccc4)nc3=O)CC2)c(C)c1 |  | inconclusive: 29.1 µM [cytotoxic, single point] |
| COc1ccc(OCc2cc(C(=O)NC(C)Cc3ccccn3)no2)c(Cl)c1 (stereo not given) | inactive: -17.7% |  |
| CCOC(=O)c1c(CN2CCN(C)CC2)n(-c2ccccc2)c2cc(Br)c(O)cc12 |  | inconclusive: 29.1 µM [cytotoxic, single point] |
| O=C(O)C1C2C=CC(C2)C1C(=O)NCCCN1CCOCC1 (stereo not given) |  | inconclusive: 32.6 µM [rising, partial curve, poor fit] |
| Cc1c(C(=O)NCc2ccc(C(F)(F)F)cc2)sc(=O)n1Cc1cccc(F)c1 |  | inconclusive: 32.6 µM [cytotoxic, partial curve, poor fit] |
| O=C(c1[nH]ncc1-c1cccc(Br)c1)C1CO1 (stereo not given) |  | inconclusive: 20.6 µM [cytotoxic, partial curve, poor fit] |
| FC(F)(F)c1ccccc1Cc1c(-c2ccc(Cl)cc2)nc2c3ccccc3ccn12 | inactive: -2.92% |  |
| CCN1CCN(C(=O)CN(c2ccc(F)cc2)S(=O)(=O)c2ccc(OC)c(OC)c2)CC1 | inactive: 11.6% |  |
| CC(C)NC(=O)NC(=O)CSc1nnc(COc2ccccc2F)n1C(C)C1CC2CCC1C2 (stereo not given) |  | inconclusive: 28.2 µM [cytotoxic, single point] |
| CCCc1nccn1S(=O)(=O)c1cc(Br)ccc1OC | inactive: 5.33% |  |
| COc1ccc(Cl)cc1NC(=O)N1CC(=O)Nc2sc3c(c2C1c1ccccc1)CCCC3 (stereo not given) | inactive: -0.269% |  |
| N#CC1c2ccccc2-c2ccccc2N1C(=O)c1ccccc1 (stereo not given) |  | inconclusive: 3.26 µM [cytotoxic, full curve] |
| Cc1ccc(C(=O)NC(=S)NNC(=O)COc2ccc([N+](=O)[O-])cc2)cc1 |  | inconclusive: 16.4 µM [cytotoxic, single point] |
| CCn1cc(C(=O)NCCc2ccccc2)c(=O)c2cc(F)c(N3CCN(C)CC3)cc21 |  | inconclusive: 15.8 µM [cytotoxic, single point] |
| O=C(NCc1ccccc1)c1ccc(S(=O)(=O)N2CCCc3ccccc32)cc1 |  | inconclusive: 32.6 µM [cytotoxic, single point] |
| COc1ccc(NC(=O)CN2C(=O)CCc3cc(S(=O)(=O)N4CCOCC4)ccc32)cc1Cl | inactive: 6.59% |  |
| Cc1ccc(SCC(=O)Nc2cccc(S(=O)(=O)N3CCOCC3)c2)cc1C | inconclusive: -30.1% [cytotoxic] |  |
| Cc1ccc2nc(C3CCCCC3)c(Cc3cccc(Cl)c3)n2c1 | inactive: -1.04% |  |
| CCCC(=O)NC(c1ccccc1Cl)c1ccc2cccnc2c1O (stereo not given) |  | inconclusive: 1.46 µM [cytotoxic, full curve, poor fit] |
| CCOC(=O)c1sc2nc(C3CC3)cc(-c3ccc(F)cc3)c2c1N | inactive: 3.78% |  |
| COc1cc(CC(=O)OCc2cccc([N+](=O)[O-])c2)cc(OC)c1OC | inactive: 0% |  |

| Structure (SMILES) | activity change, negative = cytotoxic | Potency |
| --- | --- | --- |
| CCOc1ccc2c(c1)C(C)=CC(C)(C)N2S(=O)(=O)c1ccc(C)cc1 |  | active: 2.06 µM |
| CC[n+]1ccccc1/C=C1\Sc2ccc(C)cc2N1C |  | inconclusive: 0.461 µM [cytotoxic, full curve, poor fit] |
| Cc1c(NCc2cc(Cl)ccc2O)c(=O)n(-c2ccccc2)n1C | inactive: 11% |  |
| CCOC(=O)CSc1nc(C)c2cccc(C)c2n1 |  | inconclusive: 0.411 µM [rising, full curve] |
| CCCCOCCCNC(=O)c1ccc(OCC)cc1 | inactive: 2.93% |  |
| O=C(Nc1ccccc1)c1cn(-c2ccccc2)nc1-c1ccccc1 | inactive: -6.46% |  |
| O=C(NCc1ccc(F)cc1)c1ccc(S(=O)(=O)Nc2cccc(C(F)(F)F)c2)cc1 |  | inconclusive: 18.4 µM [cytotoxic, single point] |
| COC(=O)c1cccc(C23CC4(C2)[C@H](CN(Cc2ccc(C(F)(F)F)cc2)[C@@H]4c2ccccc2)C3c2ccc(C(F)(F)F)cc2)c1 (stereo not given in full) |  | active: 13 µM |
| CC1(c2nc3ccccc3[nH]2)c2ccccc2C(=O)N1Cc1ccccn1 (stereo not given) |  | inconclusive: 18.4 µM [rising, single point] |
| COc1ccccc1NC(=O)CSC1=Nc2ccccc2N=C(c2ccc(F)cc2)C1 | inactive: 1.13% |  |
| CCN1CCN(CCCNC(=O)C2CCCN(c3nc4c(C)cc(C)cc4s3)C2)CC1 (stereo not given) |  | inconclusive: 29.1 µM [cytotoxic, single point] |
| CC(=O)Nc1cccc(Oc2ncnc3scc(-c4ccc(C(C)C)cc4)c23)c1 |  | inconclusive: 20.6 µM [cytotoxic, single point] |
| Cc1ccc(S(=O)(=O)Nc2cc(C(F)(F)F)ccc2N2CCOCC2)cc1C |  | inconclusive: 16.4 µM [cytotoxic, partial curve] |
| COc1ccc(/C=C/C(=O)Nc2cccc(S(=O)(=O)NC3=NCCCCC3)c2)cc1 | inconclusive: -56.5% |  |
| C[C@@H]1CCCCO[C@H](CN(C)Cc2ccc(Cl)c(Cl)c2)[C@H](C)CN([C@@H](C)CO)C(=O)c2cc(NC(=O)Nc3ccc(F)cc3)ccc2O1 |  | inconclusive: 29.1 µM [cytotoxic, single point] |
| COc1ccc(/C=C2\SC(=O)N(CCNC(=O)Cc3coc4cc(OC)ccc34)C2=O)cc1 |  | inconclusive: 16.4 µM [cytotoxic, single point] |
| CCCCn1c(=O)c2c(nc3n2CCCN3Cc2ccccc2)n(C)c1=O |  | inconclusive: 23.1 µM [cytotoxic, partial curve, poor fit] |
| CC(C)Oc1cccc(C(=O)Nc2nnc([C@H]3C[C@H](O)[C@@H](CO)O3)s2)c1 | inactive: 0% |  |
| CCOC(=O)c1cc2c(=O)n3cccc(C)c3nc2n(CC(C)C)c1=NC(=O)c1ccco1 | inactive: -13.9% |  |
| CCC(OCC(O)CN1CCCCC1)c1ccccc1 (stereo not given) |  | inconclusive: 32.6 µM [cytotoxic, single point] |
| Cc1c(NC(=O)COC(=O)c2cccc(F)c2)c(=O)n(-c2ccccc2)n1C | inactive: 8.16% |  |
| Oc1ccccc1-c1cc(-c2ccc(F)cc2)n[nH]1 |  | inconclusive: 16.4 µM [cytotoxic, single point] |
